In the supplement of paper PMC6411743:
± gives the standard deviation of the averaged measurements. The list shows a part of the results.

Sequences of proteins named here, by UniProt entry; tags and fusion partners are left off. A change or cut given only in a name is not applied to a line headed by its entry.
UniProt Q15181: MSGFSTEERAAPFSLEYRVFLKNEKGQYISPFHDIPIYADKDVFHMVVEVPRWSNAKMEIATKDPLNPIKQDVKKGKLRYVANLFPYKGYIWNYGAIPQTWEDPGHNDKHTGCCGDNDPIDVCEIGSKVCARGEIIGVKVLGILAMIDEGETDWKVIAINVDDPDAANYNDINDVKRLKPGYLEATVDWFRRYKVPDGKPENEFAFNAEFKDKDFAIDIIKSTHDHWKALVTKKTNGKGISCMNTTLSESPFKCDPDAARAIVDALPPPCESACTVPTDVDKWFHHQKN
UniProt Q15388, whole entry: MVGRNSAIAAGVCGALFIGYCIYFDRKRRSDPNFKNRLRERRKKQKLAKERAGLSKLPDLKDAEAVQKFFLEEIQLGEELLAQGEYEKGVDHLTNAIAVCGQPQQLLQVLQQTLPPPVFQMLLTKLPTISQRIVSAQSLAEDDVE
UniProt Q15397: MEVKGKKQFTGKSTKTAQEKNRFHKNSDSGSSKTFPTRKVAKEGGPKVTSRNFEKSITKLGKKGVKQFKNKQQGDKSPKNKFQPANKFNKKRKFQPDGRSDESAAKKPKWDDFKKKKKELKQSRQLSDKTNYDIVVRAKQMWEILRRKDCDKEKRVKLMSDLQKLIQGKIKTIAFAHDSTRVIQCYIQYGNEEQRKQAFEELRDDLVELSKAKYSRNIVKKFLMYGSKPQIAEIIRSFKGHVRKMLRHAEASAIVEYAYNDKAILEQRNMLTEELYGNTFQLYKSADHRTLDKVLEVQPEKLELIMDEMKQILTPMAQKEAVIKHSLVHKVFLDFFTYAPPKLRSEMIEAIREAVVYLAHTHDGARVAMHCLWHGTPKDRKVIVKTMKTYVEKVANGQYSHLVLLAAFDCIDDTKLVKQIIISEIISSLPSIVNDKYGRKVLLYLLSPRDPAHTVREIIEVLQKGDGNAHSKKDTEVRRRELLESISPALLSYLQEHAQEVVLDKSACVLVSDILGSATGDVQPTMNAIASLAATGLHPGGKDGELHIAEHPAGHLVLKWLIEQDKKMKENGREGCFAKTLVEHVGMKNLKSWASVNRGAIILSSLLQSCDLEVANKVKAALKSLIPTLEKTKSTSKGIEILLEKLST
UniProt Q3ZAQ7: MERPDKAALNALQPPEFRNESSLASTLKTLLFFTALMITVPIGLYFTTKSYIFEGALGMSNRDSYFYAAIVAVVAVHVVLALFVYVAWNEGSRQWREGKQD
UniProt Q2TB10: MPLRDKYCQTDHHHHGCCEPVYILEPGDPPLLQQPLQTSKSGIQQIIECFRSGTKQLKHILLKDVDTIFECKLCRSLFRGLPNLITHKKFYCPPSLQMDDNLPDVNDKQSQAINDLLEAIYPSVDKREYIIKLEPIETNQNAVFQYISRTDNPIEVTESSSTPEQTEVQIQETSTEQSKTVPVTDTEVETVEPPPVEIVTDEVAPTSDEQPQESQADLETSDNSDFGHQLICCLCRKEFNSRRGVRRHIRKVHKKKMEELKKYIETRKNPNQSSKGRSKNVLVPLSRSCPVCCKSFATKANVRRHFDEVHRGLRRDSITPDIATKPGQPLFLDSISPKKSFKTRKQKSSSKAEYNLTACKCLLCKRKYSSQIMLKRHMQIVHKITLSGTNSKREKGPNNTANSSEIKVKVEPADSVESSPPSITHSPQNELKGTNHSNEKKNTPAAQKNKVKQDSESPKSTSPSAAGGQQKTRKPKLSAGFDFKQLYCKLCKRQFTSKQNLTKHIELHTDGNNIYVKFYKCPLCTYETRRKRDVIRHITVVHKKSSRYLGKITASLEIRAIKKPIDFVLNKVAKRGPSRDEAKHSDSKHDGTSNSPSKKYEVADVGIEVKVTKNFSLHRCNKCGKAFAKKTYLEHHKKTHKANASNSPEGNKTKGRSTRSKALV
UniProt Q15050: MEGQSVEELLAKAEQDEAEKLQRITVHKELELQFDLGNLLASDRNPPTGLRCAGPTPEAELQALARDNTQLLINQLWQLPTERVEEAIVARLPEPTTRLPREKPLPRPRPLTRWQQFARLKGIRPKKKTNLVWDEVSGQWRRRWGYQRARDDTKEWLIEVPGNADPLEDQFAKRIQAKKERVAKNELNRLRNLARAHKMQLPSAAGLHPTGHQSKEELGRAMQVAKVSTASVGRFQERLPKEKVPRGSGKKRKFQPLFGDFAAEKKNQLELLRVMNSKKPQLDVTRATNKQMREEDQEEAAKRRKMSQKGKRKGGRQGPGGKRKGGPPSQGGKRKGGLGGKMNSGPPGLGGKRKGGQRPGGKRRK
UniProt Q17R31: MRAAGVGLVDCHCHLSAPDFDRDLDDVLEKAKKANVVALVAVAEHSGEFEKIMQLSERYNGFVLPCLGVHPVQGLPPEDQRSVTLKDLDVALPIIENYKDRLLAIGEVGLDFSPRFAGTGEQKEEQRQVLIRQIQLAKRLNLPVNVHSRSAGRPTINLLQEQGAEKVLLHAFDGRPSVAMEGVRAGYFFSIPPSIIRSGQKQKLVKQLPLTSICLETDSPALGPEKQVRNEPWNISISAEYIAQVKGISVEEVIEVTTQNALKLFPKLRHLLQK
UniProt Q15907: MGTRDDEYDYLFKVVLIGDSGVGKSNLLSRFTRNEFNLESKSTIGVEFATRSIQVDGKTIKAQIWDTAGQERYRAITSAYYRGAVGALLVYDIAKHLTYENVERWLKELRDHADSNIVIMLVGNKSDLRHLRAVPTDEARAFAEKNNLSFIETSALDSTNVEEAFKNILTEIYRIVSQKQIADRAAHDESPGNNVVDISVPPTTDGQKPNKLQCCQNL
UniProt Q15042: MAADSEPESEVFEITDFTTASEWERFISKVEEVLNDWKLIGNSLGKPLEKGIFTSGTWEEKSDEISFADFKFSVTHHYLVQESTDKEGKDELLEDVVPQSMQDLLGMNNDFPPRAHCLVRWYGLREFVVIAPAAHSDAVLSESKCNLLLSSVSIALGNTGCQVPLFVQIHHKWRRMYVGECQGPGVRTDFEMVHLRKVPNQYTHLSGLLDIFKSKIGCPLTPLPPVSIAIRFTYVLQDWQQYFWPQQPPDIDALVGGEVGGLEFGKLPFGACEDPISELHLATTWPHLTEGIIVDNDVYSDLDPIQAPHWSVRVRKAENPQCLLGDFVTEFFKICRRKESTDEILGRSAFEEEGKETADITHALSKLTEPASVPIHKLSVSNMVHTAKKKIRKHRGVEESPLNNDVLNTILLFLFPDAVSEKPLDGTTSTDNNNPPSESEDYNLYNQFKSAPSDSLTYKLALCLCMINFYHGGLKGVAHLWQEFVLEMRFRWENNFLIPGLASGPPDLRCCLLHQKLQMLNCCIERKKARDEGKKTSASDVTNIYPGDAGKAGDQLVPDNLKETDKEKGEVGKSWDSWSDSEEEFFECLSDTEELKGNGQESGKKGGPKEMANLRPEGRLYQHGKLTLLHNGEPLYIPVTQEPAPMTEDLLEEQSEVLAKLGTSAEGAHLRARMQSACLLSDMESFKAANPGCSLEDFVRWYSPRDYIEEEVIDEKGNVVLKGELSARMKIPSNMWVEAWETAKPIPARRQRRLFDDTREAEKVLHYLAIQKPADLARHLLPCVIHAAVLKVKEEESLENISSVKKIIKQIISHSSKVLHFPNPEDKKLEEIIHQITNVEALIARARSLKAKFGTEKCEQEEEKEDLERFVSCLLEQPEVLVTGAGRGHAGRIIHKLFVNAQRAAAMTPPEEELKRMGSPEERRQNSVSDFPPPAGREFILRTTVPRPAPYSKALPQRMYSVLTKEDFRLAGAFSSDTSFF
UniProt Q15067: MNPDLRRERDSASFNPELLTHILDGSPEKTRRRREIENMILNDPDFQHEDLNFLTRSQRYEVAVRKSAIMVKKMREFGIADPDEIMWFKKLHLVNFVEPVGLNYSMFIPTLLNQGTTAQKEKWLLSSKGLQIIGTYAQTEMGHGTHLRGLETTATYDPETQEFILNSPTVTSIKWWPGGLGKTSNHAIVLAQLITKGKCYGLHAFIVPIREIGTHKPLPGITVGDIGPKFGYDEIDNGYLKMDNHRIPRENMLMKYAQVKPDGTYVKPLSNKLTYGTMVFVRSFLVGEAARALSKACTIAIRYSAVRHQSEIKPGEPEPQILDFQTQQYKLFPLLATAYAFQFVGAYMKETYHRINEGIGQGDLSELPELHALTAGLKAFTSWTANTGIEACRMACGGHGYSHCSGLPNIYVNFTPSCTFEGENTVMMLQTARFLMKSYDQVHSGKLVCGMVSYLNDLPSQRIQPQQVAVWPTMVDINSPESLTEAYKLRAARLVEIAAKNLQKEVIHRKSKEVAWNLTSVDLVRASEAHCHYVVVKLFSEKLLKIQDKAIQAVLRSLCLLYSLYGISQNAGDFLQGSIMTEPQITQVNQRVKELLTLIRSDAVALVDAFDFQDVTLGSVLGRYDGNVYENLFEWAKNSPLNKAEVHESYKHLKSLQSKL
UniProt Q53GS7: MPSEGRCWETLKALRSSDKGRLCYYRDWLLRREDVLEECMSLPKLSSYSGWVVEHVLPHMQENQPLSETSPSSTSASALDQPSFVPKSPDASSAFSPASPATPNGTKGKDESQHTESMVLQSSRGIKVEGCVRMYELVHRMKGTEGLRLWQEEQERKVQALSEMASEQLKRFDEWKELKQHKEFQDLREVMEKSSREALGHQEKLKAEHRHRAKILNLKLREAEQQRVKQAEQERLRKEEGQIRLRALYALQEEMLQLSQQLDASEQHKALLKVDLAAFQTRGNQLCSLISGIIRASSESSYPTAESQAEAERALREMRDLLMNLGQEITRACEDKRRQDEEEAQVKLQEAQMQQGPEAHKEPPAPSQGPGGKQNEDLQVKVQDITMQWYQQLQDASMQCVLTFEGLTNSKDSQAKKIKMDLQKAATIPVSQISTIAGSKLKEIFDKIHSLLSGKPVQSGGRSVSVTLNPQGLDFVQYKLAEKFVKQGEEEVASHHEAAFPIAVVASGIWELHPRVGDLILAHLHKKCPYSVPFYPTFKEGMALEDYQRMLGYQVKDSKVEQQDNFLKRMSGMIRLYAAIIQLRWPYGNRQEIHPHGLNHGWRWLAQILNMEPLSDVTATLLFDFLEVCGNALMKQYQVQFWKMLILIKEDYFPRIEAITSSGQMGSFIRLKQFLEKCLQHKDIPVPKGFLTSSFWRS
UniProt Q4KMQ2: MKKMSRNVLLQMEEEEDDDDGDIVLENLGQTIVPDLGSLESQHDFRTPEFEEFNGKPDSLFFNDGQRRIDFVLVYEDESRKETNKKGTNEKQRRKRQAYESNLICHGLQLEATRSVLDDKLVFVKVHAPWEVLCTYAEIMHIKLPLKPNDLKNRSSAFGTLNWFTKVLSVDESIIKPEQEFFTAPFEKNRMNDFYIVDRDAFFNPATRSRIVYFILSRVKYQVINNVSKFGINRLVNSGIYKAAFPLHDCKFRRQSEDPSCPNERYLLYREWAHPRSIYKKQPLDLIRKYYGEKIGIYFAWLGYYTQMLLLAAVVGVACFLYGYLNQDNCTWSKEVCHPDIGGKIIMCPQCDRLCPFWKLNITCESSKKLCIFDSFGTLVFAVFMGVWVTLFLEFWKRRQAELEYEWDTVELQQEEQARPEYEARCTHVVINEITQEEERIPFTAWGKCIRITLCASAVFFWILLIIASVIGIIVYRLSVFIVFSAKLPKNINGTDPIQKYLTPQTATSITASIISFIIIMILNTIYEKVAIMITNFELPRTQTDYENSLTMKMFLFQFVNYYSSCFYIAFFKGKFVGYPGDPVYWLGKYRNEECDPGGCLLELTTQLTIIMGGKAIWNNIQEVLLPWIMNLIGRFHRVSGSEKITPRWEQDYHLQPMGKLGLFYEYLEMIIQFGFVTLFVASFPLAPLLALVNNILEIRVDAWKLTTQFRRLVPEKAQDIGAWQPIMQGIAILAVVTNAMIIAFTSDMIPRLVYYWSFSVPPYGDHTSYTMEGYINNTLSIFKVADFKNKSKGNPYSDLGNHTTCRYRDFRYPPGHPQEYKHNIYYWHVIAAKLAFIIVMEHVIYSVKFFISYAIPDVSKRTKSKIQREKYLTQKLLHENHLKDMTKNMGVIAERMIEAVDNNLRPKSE
UniProt Q15223: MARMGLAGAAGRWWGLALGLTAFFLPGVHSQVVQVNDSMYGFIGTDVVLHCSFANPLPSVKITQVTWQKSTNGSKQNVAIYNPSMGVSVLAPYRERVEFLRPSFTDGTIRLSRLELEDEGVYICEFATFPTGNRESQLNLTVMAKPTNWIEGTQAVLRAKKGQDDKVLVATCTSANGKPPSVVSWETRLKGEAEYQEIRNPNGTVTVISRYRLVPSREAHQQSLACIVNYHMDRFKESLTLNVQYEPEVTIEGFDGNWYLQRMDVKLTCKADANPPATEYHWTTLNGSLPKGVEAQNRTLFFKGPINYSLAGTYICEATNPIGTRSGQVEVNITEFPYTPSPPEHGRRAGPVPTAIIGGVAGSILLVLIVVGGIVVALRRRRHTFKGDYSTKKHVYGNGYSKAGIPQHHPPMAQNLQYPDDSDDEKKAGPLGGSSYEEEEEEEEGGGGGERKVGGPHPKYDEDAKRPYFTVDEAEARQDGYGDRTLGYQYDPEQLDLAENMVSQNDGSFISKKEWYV

Compound: Nc1nc2c(ncn2[C@@H]2O[C@H](COP(=O)(O)OP(=O)(O)OP(=O)(O)O)[C@@H](O)[C@H]2O)c(=O)[nH]1 [guanosine triphosphate]
Assay: NP40-soluble protein abundance relative to vehicle (solubility fold change) (ratio); higher = more soluble protein in presence of GTP
Summary of the method: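 Data come from three independent experiments in which Dounce-homogenised Jurkat crude lysate was treated at eight concentrations from 0.1 to 10 mM. Treatment ran 10 min at room temperature and then 3 min at 37 °C, after which 0.8% NP40 and benzonase were added for 60 min at 4 °C before ultracentrifugation. The supernatant underwent TMT labelling and LC-MS/MS, and vsn-normalised intensities were expressed as fold change against the detergent-processed vehicle in each replicate.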

Target | NP40-soluble protein abundance (concentration: 0.1mM) | NP40-soluble protein abundance (concentration: 0.5mM) | NP40-soluble protein abundance (concentration: 1mM) | NP40-soluble protein abundance (concentration: 2mM) | NP40-soluble protein abundance (concentration: 4mM) | NP40-soluble protein abundance (concentration: 6mM) | NP40-soluble protein abundance (concentration: 8mM) | NP40-soluble protein abundance (concentration: 10mM)
PPA1 (UniProt Q15181) | 0.919 ± 0.035 | 0.963 ± 0.024 | 0.912 ± 0.054 | 0.877 ± 0.056 | 0.859 ± 0.05 | 0.893 ± 0.052 | 0.866 ± 0.044 | 0.852 ± 0.054
SF3A2 (UniProt Q15428) | 0.955 ± 0.035 | 1.01 ± 0.0056 | 1.07 ± 0.062 | 1.08 ± 0.039 | 1.05 ± 0.052 | 1.1 ± 0.027 | 1.08 ± 0.043 | 1.1 ± 0.072
CEP55 (UniProt Q53EZ4) | 0.909 ± 0.045 | 0.952 ± 0.078 | 1.01 ± 0.097 | 1.01 ± 0.12 | 1.02 ± 0.07 | 1.01 ± 0.077 | 1.04 ± 0.044 | 1.13 ± 0.044
TOMM20 (UniProt Q15388) | 0.781 ± 0.08 | 0.742 ± 0.068 | 0.974 ± 0.11 | 0.959 ± 0.047 | 0.974 ± 0.067 | 0.985 ± 0.039 | 0.804 ± 0.23 | 1 ± 0.18
TOMM34 (UniProt Q15785) | 0.945 ± 0.08 | 0.889 ± 0.075 | 0.971 ± 0.12 | 0.944 ± 0.13 | 0.903 ± 0.11 | 0.921 ± 0.1 | 0.919 ± 0.1 | 0.938 ± 0.1
UniProt Q147X3 and related entries | 0.987 ± 0.19 | 0.98 ± 0.13 | 0.963 ± 0.12 | 0.929 ± 0.12 | 0.957 ± 0.094 | 0.934 ± 0.12 | 0.855 ± 0.044 | 0.925 ± 0.19
UniProt Q5MIZ7 and related entries | 0.965 ± 0.013 | 0.987 ± 0.019 | 0.955 ± 0.023 | 0.923 ± 0.039 | 0.913 ± 0.015 | 0.908 ± 0.046 | 0.962 ± 0.072 | 0.97 ± 0.034
UniProt Q15397 | 1.07 ± 0.042 | 1.04 ± 0.05 | 1.12 ± 0.046 | 1.27 ± 0.036 | 1.31 ± 0.021 | 1.32 ± 0.027 | 1.31 ± 0.071 | 1.39 ± 0.028
UniProt Q3ZCQ8 and related entries | 0.965 ± 0.02 | 0.962 ± 0.058 | 0.945 ± 0.014 | 0.911 ± 0.052 | 0.911 ± 0.047 | 0.915 ± 0.048 | 0.913 ± 0.0096 | 0.902 ± 0.067
VMA21 (UniProt Q3ZAQ7) | 0.9959 ± 0.0065 | 0.947 ± 0.034 | 0.947 ± 0.013 | 0.942 ± 0.04 | 0.95 ± 0.049 | 0.937 ± 0.034 | 0.885 ± 0.036 | 0.9501 ± 0.0088
UniProt Q16656 and related entries | 0.955 ± 0.046 | 0.929 ± 0.049 | 0.926 ± 0.061 | 0.95 ± 0.11 | 0.916 ± 0.066 | 0.946 ± 0.11 | 0.932 ± 0.07 | 0.955 ± 0.092
UniProt Q2TB10 and related entries | 1.04 ± 0.1 | 1.15 ± 0.14 | 1.15 ± 0.12 | 1.36 ± 0.28 | 1.68 ± 0.48 | 1.9 ± 0.44 | 2.04 ± 0.64 | 2.54 ± 1.1
RRS1 (UniProt Q15050) | 0.911 ± 0.042 | 1.07 ± 0.057 | 1.1 ± 0.076 | 1.01 ± 0.075 | 0.99 ± 0.12 | 0.985 ± 0.059 | 0.976 ± 0.14 | 1.04 ± 0.027
UniProt Q14790 and related entries | 0.967 ± 0.022 | 0.958 ± 0.063 | 0.876 ± 0.032 | 0.901 ± 0.045 | 0.874 ± 0.043 | 0.889 ± 0.027 | 0.802 ± 0.049 | 0.824 ± 0.078
UniProt Q17R31 and related entries | 0.987 ± 0.038 | 0.976 ± 0.038 | 1.02 ± 0.046 | 1.01 ± 0.02 | 0.991 ± 0.068 | 1 ± 0.058 | 1 ± 0.054 | 0.973 ± 0.085
RAB11B (UniProt Q15907) | 0.963 ± 0.025 | 0.9578 ± 0.0017 | 0.887 ± 0.054 | 0.872 ± 0.051 | 0.852 ± 0.064 | 0.849 ± 0.056 | 0.818 ± 0.081 | 0.807 ± 0.078
UniProt Q15042 | 1.1 ± 0.047 | 1.03 ± 0.048 | 1.05 ± 0.026 | 1.04 ± 0.031 | 1.04 ± 0.055 | 1 ± 0.025 | 1.02 ± 0.042 | 0.96 ± 0.021
UniProt Q5H8A4-5 | 0.898 ± 0.12 | 0.88 ± 0.1 | 0.885 ± 0.15 | 0.865 ± 0.11 | 0.892 ± 0.11 | 0.838 ± 0.093 | 0.832 ± 0.11 | 0.865 ± 0.093
UniProt Q5JUR7 | 1.04 ± 0.022 | 1.03 ± 0.048 | 0.934 ± 0.058 | 0.955 ± 0.032 | 0.986 ± 0.033 | 0.991 ± 0.033 | 0.977 ± 0.042 | 0.964 ± 0.042
Q5JY65 and related entries (UniProt Q9BZJ0) | 1.12 ± 0.048 | 1.07 ± 0.063 | 1.06 ± 0.042 | 1.04 ± 0.059 | 1.03 ± 0.068 | 0.963 ± 0.068 | 1.02 ± 0.1 | 0.917 ± 0.041
UniProt Q16854 and related entries | 1.04 ± 0.031 | 1.01 ± 0.059 | 0.907 ± 0.049 | 0.857 ± 0.032 | 0.892 ± 0.023 | 0.846 ± 0.021 | 0.876 ± 0.081 | 0.817 ± 0.073
UniProt Q15067 and related entries | 0.989 ± 0.054 | 1.03 ± 0.082 | 0.889 ± 0.017 | 0.95 ± 0.069 | 0.904 ± 0.035 | 0.924 ± 0.036 | 0.841 ± 0.013 | 0.867 ± 0.048
UniProt Q53GS7 and related entries | 0.981 ± 0.017 | 1.03 ± 0.16 | 1.02 ± 0.078 | 1.08 ± 0.027 | 1.14 ± 0.056 | 1.13 ± 0.016 | 1.152 ± 0.011 | 1.28 ± 0.11
UniProt Q14699 and related entries | 0.992 ± 0.061 | 0.928 ± 0.07 | 0.97 ± 0.079 | 0.946 ± 0.088 | 0.948 ± 0.085 | 0.914 ± 0.071 | 0.952 ± 0.019 | 0.925 ± 0.048
UniProt Q4KMQ2 and related entries | 1.07 ± 0.03 | 1.04 ± 0.022 | 0.976 ± 0.056 | 0.989 ± 0.017 | 0.978 ± 0.044 | 0.967 ± 0.039 | 0.951 ± 0.077 | 0.918 ± 0.025
UniProt Q1ED39 | 0.995 ± 0.035 | 0.984 ± 0.031 | 1.09 ± 0.039 | 1.14 ± 0.014 | 1.17 ± 0.052 | 1.25 ± 0.062 | 1.33 ± 0.06 | 1.42 ± 0.059
UniProt Q16698 and related entries | 0.994 ± 0.03 | 0.978 ± 0.056 | 1.03 ± 0.092 | 1.07 ± 0.18 | 1.23 ± 0.27 | 1.37 ± 0.36 | 1.42 ± 0.34 | 1.39 ± 0.38
UniProt Q15223 | 1.14 ± 0.15 | 1.02 ± 0.13 | 1.02 ± 0.13 | 1.08 ± 0.13 | 1.04 ± 0.15 | 0.959 ± 0.13 | 1.06 ± 0.12 | 0.979 ± 0.18
UBE2V2 (UniProt Q15819) | 0.923 ± 0.027 | 0.886 ± 0.05 | 0.9487 ± 0.0088 | 0.929 ± 0.035 | 0.91 ± 0.042 | 0.896 ± 0.048 | 0.896 ± 0.05 | 0.95 ± 0.014
UniProt Q14693 and related entries | 1.07 ± 0.04 | 1.01 ± 0.062 | 1.05 ± 0.068 | 1.05 ± 0.02 | 1.02 ± 0.074 | 1.03 ± 0.043 | 0.99 ± 0.032 | 0.994 ± 0.051

Two records drawn at random from those above, as already listed:
Target | NP40-soluble protein abundance (concentration: 0.1mM) | NP40-soluble protein abundance (concentration: 0.5mM) | NP40-soluble protein abundance (concentration: 1mM) | NP40-soluble protein abundance (concentration: 2mM) | NP40-soluble protein abundance (concentration: 4mM) | NP40-soluble protein abundance (concentration: 6mM) | NP40-soluble protein abundance (concentration: 8mM) | NP40-soluble protein abundance (concentration: 10mM)
UniProt Q16698 and related entries | 0.994 ± 0.03 | 0.978 ± 0.056 | 1.03 ± 0.092 | 1.07 ± 0.18 | 1.23 ± 0.27 | 1.37 ± 0.36 | 1.42 ± 0.34 | 1.39 ± 0.38
RAB11B (UniProt Q15907) | 0.963 ± 0.025 | 0.9578 ± 0.0017 | 0.887 ± 0.054 | 0.872 ± 0.051 | 0.852 ± 0.064 | 0.849 ± 0.056 | 0.818 ± 0.081 | 0.807 ± 0.078
